# Measured values from PubChem BioAssay AID504444 (National Center for Advancing Translational Sciences (NCATS), 2011).
# Screen size: about 360,000 compounds; about 7,500 (2.1%) were called active. The inconclusive results got no clear call from the source; some entries with a clear call stand among them for comparison. The call rests on the fitted dose curve; in most records, active means well fitted inhibition curve with a large enough effect; inconclusive means small, poorly fitted or top-dose-only effect, or effect the other way; inactive means flat fitted curve, though single readings scatter. Where the call is inconclusive, the potency comes from a doubtful curve fit.
# Assay: Nrf2 qHTS screen for inhibitors; further: nearly all actives have a fitted effect of over 60% in size
# Settings: A549 ARE-Fluc reporter, luciferase luminescence, 18-24 h; activity change, negative = inhibition: at 46 µM (top of the series)
# Procedure, shortened: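 A549 ARE_Fluc cells (5000/well, 5% FBS OPTI-MEM) pre-incubated 2 h, then treated with compounds 18-24 h at 37C/5% CO2 in concentration-response. CellTiter-Fluor viability read first; BugLite luciferase luminescence after 15 min at room temperature gives Nrf2 activity.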
# On the % scale 0 is the no-effect control and ±100 the full control effect; potency means the concentration at half of the fitted maximal effect.
SMILES,Potency,"activity change, negative = inhibition"
N#Cc1ccccc1CSc1ccc(-c2nc3ccccc3[nH]2)cn1,"inconclusive: 29.1 µM [falling, single point]",
Cc1ccc(N/C=C2/Sc3ccccc3NC2=O)cc1,"inconclusive: 0.164 µM [activator, full curve, poor fit]",
Clc1ncccc1-c1nnn(-c2ccccc2)n1,"inconclusive: 5.8 µM [activator, partial curve]",
COC(=O)c1c(NC(=O)/C=C/C(=O)O)sc(C)c1-c1ccc(C)cc1,"inconclusive: 25.9 µM [activator, partial curve, poor fit]",
Cc1cc(C(=O)COC(=O)c2ccc(O)cc2O)c(C)n1-c1ccc(OC(F)F)cc1,"inconclusive: 16.4 µM [falling, partial curve, poor fit]",
CCOC(=O)c1sc(SCC(=O)Nc2ccc(N(C)C)cc2)nc1N,"inconclusive: 5.8 µM [falling, partial curve, poor fit]",
CN(C)/C=N/c1nc2nccc(-c3ccc(F)cc3)n2n1,,inactive: -5.75%
N/C(Cc1ccc(Cl)cc1)=N\OC(=O)c1cccc2ccccc12,"inconclusive: 9.2 µM [falling, partial curve, poor fit]",
COc1cccc(C(=O)Nc2ccc(NC(=O)c3cc4ccccc4o3)c(OC)c2)c1,"inconclusive: 14.6 µM [falling, partial curve]",
COc1ccc(OC)c(NC(=O)c2cc3sccc3n2C)c1,"inconclusive: 29.1 µM [activator, single point]",
O=C(NCc1ccco1)c1ccc([N+](=O)[O-])o1,"inconclusive: 23.1 µM [activator, single point]",
CC(=O)c1ccc(OC(C)c2nc3ccccc3s2)cc1 (stereo not given),"inconclusive: 23.1 µM [activator, single point]",
Cn1c(=O)c2c(nc(NCc3ccco3)n2CC(O)COc2ccccc2)n(C)c1=O (stereo not given),,inactive: -17.1%
CN(C)c1ncnc2c1ccn2C1OC(CO)C(O)C1O (stereo not given),"inconclusive: 2.59 µM [falling, full curve]",
CCNc1nc(NCc2ccccc2)nc(SCC(N)=O)n1,,inactive: -18.6%
Cc1ccccc1OCC(=O)OCC(=O)Nc1ccc2c(c1)OCCO2,"inconclusive: 2.31 µM [falling, partial curve, poor fit]",
CCC(C)(C)n1nnnc1CN1CCN(c2nc3cc(OC)ccc3cc2C#N)CC1,active: 18.4 µM,
C=C(C)c1cccc(C(C)(C)NC(=O)Nc2ccc(Cl)cn2)c1,"inconclusive: 20.6 µM [falling, single point]",
COc1ccc(OC)c(-c2noc(CSc3nnc(Cc4ccccc4)n3-c3cccc(C)c3)n2)c1,"inconclusive: 29.1 µM [falling, single point]",
O=C(NCCSc1ccccc1)c1ccccc1F,"inconclusive: 2.59 µM [activator, full curve]",
O=C(N/N=C/c1ccc(Br)o1)/C(=C/c1ccc([N+](=O)[O-])cc1)NC(=O)c1ccccc1,"inconclusive: 14.6 µM [falling, single point]",
NNC(=O)COc1ccc(-c2nccc(-c3ccc(F)cc3)n2)cc1,"inconclusive: 11.6 µM [falling, partial curve, poor fit]",

# As entered above.
# For activity change, negative = inhibition, CN(C)/C=N/c1nc2nccc(-c3ccc(F)cc3)n2n1 has inactive: -5.75%
# For Potency, CN(C)c1ncnc2c1ccn2C1OC(CO)C(O)C1O (stereo not given) has inconclusive: 2.59 µM [falling, full curve]
# For Potency, O=C(N/N=C/c1ccc(Br)o1)/C(=C/c1ccc([N+](=O)[O-])cc1)NC(=O)c1ccccc1 has inconclusive: 14.6 µM [falling, single point]
# For activity change, negative = inhibition, Cn1c(=O)c2c(nc(NCc3ccco3)n2CC(O)COc2ccccc2)n(C)c1=O (stereo not given) has inactive: -17.1%
# For Potency, Clc1ncccc1-c1nnn(-c2ccccc2)n1 has inconclusive: 5.8 µM [activator, partial curve]

# Additional records:

SMILES,Potency,"activity change, negative = inhibition"
CCc1nnc(SCC(=O)Nc2cc(Cl)c(OC)cc2OC)c2cc3oc(C)cc3n12,"inconclusive: 16.4 µM [activator, partial curve, poor fit]",
COC(=O)c1ccccc1NC(=O)Cc1noc2ccc(C)cc12,"inconclusive: 29.1 µM [falling, single point]",
CS(=O)(=O)N1CCCC(C(=O)Nc2ccc3c(c2)OCCO3)C1 (stereo not given),"inconclusive: 29.1 µM [activator, single point]",
Cc1ccc(S(=O)(=O)c2c(N)n(/N=C/c3ccco3)c3nc4ccccc4nc23)cc1C,"inconclusive: 14.6 µM [falling, partial curve, poor fit]",
CCOc1ccc(OCC)c(NC(=O)CN2CCN(CC)CC2)c1,"inconclusive: 0.259 µM [activator, full curve, poor fit]",
O=S(c1ccccc1O)S(=O)c1ccccc1O (stereo not given),,inactive: 4.02%
NC(=O)c1ccc(NCC2COc3ccccc3O2)c([N+](=O)[O-])c1 (stereo not given),"inconclusive: 29.1 µM [falling, single point]",
CC(C)(C)c1ccc(OCC(=O)Nc2ccncc2)c(Br)c1,"inconclusive: 29.1 µM [falling, single point]",
Cc1cccc(NC(=S)NC(=O)/C=C/c2ccco2)c1,"inconclusive: 20.6 µM [activator, partial curve]",
CCc1ccc(NC(=O)CC2C(=O)N(c3ccccc3)C(=O)N2C(C)C)cc1 (stereo not given),"inconclusive: 20.6 µM [activator, single point]",
COc1ccc2cc(CCNC(=O)c3cc4ccccc4o3)c(=O)[nH]c2c1,active: 10.3 µM,
CCc1cccc2c(C(=O)CN3C(=O)NC4(CCCCCC4)C3=O)c[nH]c12,"inconclusive: 14.6 µM [falling, partial curve]",
CN1CC(=O)NC1=NC(=O)C12CC3CC(CC(C3)C1)C2,"inconclusive: 29.1 µM [falling, single point]",
CC/C(C)=N/Nc1nc2c(c(=O)[nH]c(=O)n2C)n1Cc1ccccc1,"inconclusive: 23.1 µM [falling, single point]",
O=C1CCc2cc(S(=O)(=O)Nc3ccc(F)cc3)ccc2N1,"inconclusive: 8.2 µM [falling, partial curve, poor fit]",
CC(=O)Nc1ccc(NC(=O)c2cc(C3CC3)nc3c2cnn3C(C)C)cc1,"inconclusive: 32.6 µM [falling, partial curve, poor fit]",
O=C(COC(=O)c1ccc(O)cc1O)NC12CC3CC(CC(C3)C1)C2,"inconclusive: 20.6 µM [activator, partial curve, poor fit]",
COc1nc(Nc2ccc([N+](=O)[O-])cc2)nc(NC2CCCCC2)n1,"inconclusive: 29.1 µM [falling, single point]",
CCNC(=O)CN(c1ccc(F)cc1)S(=O)(=O)c1ccc2c(c1)OCCO2,"inconclusive: 18.4 µM [falling, partial curve, poor fit]",
O=C(Nc1ccc(F)cc1F)c1noc2c1CCc1ccccc1-2,"inconclusive: 3.66 µM [activator, full curve, poor fit]",
COc1ccc(NC(=O)[C@@H]2CCCN2S(=O)(=O)c2ccccc2F)cc1S(=O)(=O)N1CCCCC1,"inconclusive: 18.4 µM [falling, partial curve, poor fit]",
CC(C)CCNC(=O)CSCc1cnn(-c2ccccc2)c1-n1cccc1,,inactive: -18.5%

SMILES,Potency,"activity change, negative = inhibition"
Cc1sc2ncnc(N3CCC(C(=O)Nc4sc5c(c4C(N)=O)CCC(C)C5)CC3)c2c1C (stereo not given),"inconclusive: 18.4 µM [falling, single point]",
Cc1ccc(NS(=O)(=O)c2cccc(C(=O)NCC3CCCO3)c2)cc1 (stereo not given),active: 20.6 µM,
CCCCc1nnc(NC(=O)Cc2ccc(S(=O)(=O)N3CCOCC3)s2)s1,,inactive: 2.88%
Cc1cnc(C(=O)Nc2ccc(C)c(S(=O)(=O)N3CCCCCC3)c2)cn1,"inconclusive: 29.1 µM [falling, single point]",
CCOCc1c(C(=O)OCC(=O)/C(C#N)=C(\C)N)oc2ccccc12,"inconclusive: 29.1 µM [falling, single point]",
COc1cccc(Nc2nc3ccccc3nc2NS(=O)(=O)c2ccc(NC(C)=O)cc2)c1,,inactive: -11.8%
COC(=O)c1ccccc1NC(=O)Nc1cc(C(C)(C)C)on1,"inconclusive: 23.1 µM [activator, single point]",
O=C(Oc1cc2oc(=O)c3c(c2cc1Cl)CCCC3)c1cccs1,,inactive: 13%
O=C(c1ccccc1)N1CCCC(C(=O)N2CCCCCC2)C1 (stereo not given),"inconclusive: 4.61 µM [activator, partial curve, poor fit]",
CCC(C)(C)C1CCc2[nH]nc(C(=O)NN)c2C1 (stereo not given),"inconclusive: 0.231 µM [falling, full curve, poor fit]",
Cc1noc(C)c1C(=O)NCCc1c(C)[nH]c2ccccc12,,inactive: 2.86%
Cn1c(=O)n(C)c2cc(NC(=O)c3cccc([N+](=O)[O-])c3)c(Br)cc21,"inconclusive: 18.4 µM [falling, partial curve]",
Cc1ccc(S(=O)(=O)N(C)c2ccc(OCC(=O)N3CCCC(C(F)(F)F)C3)cc2)cc1 (stereo not given),"inconclusive: 29.1 µM [falling, single point]",
FC(F)(F)c1cc(CCN2CCNC[C@@H]2c2ccccc2)cc(C(F)(F)F)c1,,inactive: 2.42%
CCOc1ccccc1NC(=O)COc1coc(CN2CCc3ccccc32)cc1=O,"inconclusive: 29.1 µM [falling, single point]",
CCOC(=O)NC(=O)CSc1nc(-c2ccc(C)c(C)c2)cn1-c1ccccc1,"inconclusive: 3.66 µM [activator, single point]",
COc1ccc(C(=O)Oc2cc(N)n(S(=O)(=O)c3ccccc3)n2)cc1,"inconclusive: 18.4 µM [falling, single point]",
O=C(Nc1nc2cc3c(cc2s1)OCCO3)c1cccc(N2C(=O)CCC2=O)c1,,inactive: -20.6%
Cc1cccc(NC(=O)Cn2cc(C(=O)c3ccco3)c3ccccc32)c1C,active: 20.6 µM,
CCc1ccccc1NC(=O)Cn1nnc(C(=O)Nc2ccc(C)c(F)c2)c1N,"inconclusive: 25.9 µM [activator, single point]",
O=C(Nc1ccc(N2CCOCC2)cc1)c1cc2c(s1)CCCC2,"inconclusive: 0.0065 µM [activator, full curve, poor fit]",
